Some peptides are written in HELM: one residue between dots, names in brackets for other building blocks, links after the first $.
Assay: general procedure: Fmoc solid-phase peptide synthesis; 2-Cl-trityl resin (Iris Biotech GmbH); HBTU/HOBt/DIPEA
Conditions: for final HPLC purity: UV detection at 220 nm

Row | Substance | isolated yield (whole synthesis) | final HPLC purity (whole synthesis) | final HPLC purity (conjugation step)
1 | PEPTIDE1{D.A.H.S.F.S}$$$$V2.0 | 29% | 98% | 
2 | PEPTIDE1{L.I.K.K.P.F}$$$$V2.0 | 32% | 97% | 
3 | PEPTIDE1{P.G.D.L.S.R}$$$$V2.0 | 31% | 98% | 
4 | PEPTIDE1{[NODAGA].[bAla].P.G.D.L.S.R}$$$$V2.0 | 28% |  | >95%

Source: publication PMC5835976 (EJNMMI Radiopharmacy and Chemistry, 2017)
